From PubChem BioAssay AID651664 (NMMLSC, 2012)
Fewer than 10 of roughly 1,800 compounds were called active.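 Rule for the calls: active = inhibition of granule release above a set limit; inactive = the rest.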 This is one part of the list.

assay: LAMP-1 surface externalization blockers in TALL-104 cells – cell-based, flow cytometry, validation set (AID 651664); details: TALL-104 LAMP-1 externalization, at 15.2 µM, stronger effect = higher value, stimulated with thapsigargin and PMA

inhibition, inactive:
Cc1ccc(O)c(-c2cc(-c3ccccc3F)[nH]n2)c1 -0.7%
Cc1nn(-c2ccccc2)c2c1C(c1ccc(O)c(O)c1)N1C(=N2)C(Nc2ccccc2)=Nc2ccccc21 (centres undefined) -0.7%
CC(C)Sc1cc(N2CCOCC2)nc(-c2ccc(Cl)cc2)n1 -2.1%
Cn1c(=O)c2c3c(sc2n2cnnc12)CCC3 -0.8%
CCN(CC(=O)NCc1ccc(F)cc1)Cc1nc2cc(Cl)ccc2c(=O)[nH]1 -1.4%
COc1ccc(C(=O)c2ccccc2)c2c(O)ccc(C(=O)c3ccccc3)c12 1.8%
Cc1cc(C)nc(NC(=O)c2c(-c3c(Cl)cccc3Cl)noc2C)n1 0.9%
CCCC(=O)NNc1cc(=O)c2c(=O)n(C)c(=O)n(C)c2[nH]1 1.5%
Cc1ccc2nc(-c3ccc4c(c3)OCCO4)cc(C(=O)O)c2c1 -1.6%
COc1ccc(C2/C(=C(/O)c3ccc(C)cc3)C(=O)C(=O)N2C)cc1 (centres undefined) -0.2%
Cc1ccccc1-c1nnc(SCC(=O)NC2CCCCC2)o1 -1.6%
Cc1ccccc1NC1C=CS(=O)(=O)C1 (centres undefined) 30.2%
Cc1cccnc1Nc1nc(-c2ccccn2)cs1 2.4%
CC1(C)OC(=O)N(Cc2ccco2)C1(C)O (centres undefined) -1.3%
Cc1ccc(COn2c(-c3ccc(Cl)cc3Cl)nc3ncccc32)cc1 -0.8%
Cc1n[nH]c(C)c1CCCOc1ccccc1 -1.6%
S=c1[nH]nc(COc2ccc3ccccc3c2)o1 25.8%
CC(=O)c1cccc(NC(=O)C2CCCN(S(=O)(=O)c3ccc(F)cc3)C2)c1 (centres undefined) -6.3%
CCc1nc(C)cn1S(=O)(=O)c1cc(OC)c(C)cc1C 0.9%
COc1ccc(NC(=O)c2cccnc2N2CCCCC2)cc1 -1%
CC(C(=O)O)N1C(=O)CSc2ncccc21 (centres undefined) 2.4%
CN(C(=O)COC(=O)c1ccccc1Nc1ccccc1)C1CCS(=O)(=O)C1 (centres undefined) 14%
Cc1ccc(CNC(=O)c2ccccc2NC(=O)CSc2nnnn2C)cc1 -1.7%
O=C(Nc1ccc2ccccc2c1)c1onc2c1CCCC2 -0.5%
CC(C)(C)C(=O)/C(=C\c1cccc([N+](=O)[O-])c1)n1cncn1 0%
CC(C)C(=O)NC(c1ccco1)c1ccc2cccnc2c1O (centres undefined) -2.7%
Oc1ccc(-c2onc3ccc(Cl)cc23)cc1 2.3%
Cc1[nH]nc2c1C(c1ccc(OC(=O)c3ccco3)cc1)C(C#N)=C(N)O2 (centres undefined) -5.1%
COc1ccc(/C(O)=C2/C(=O)C(=O)N(CCCN(C)C)C2c2ccc(Cl)cc2)cc1OC (centres undefined) 6.2%
CCOC(=O)C(CCCOc1ccccc1)C(=O)OCC 2.8%
O=c1/c(=C/c2ccc(O)cc2)sc2n1CCCN=2 1.7%
CCOC(=O)COn1c2c(c3c4no[n+]([O-])c4ccc31)CCCC2 0.5%
Cc1cc2c(c(N)n1)c(=O)oc1ccccc12 -1%
COc1ccc(C(=O)N2CCSC2=S)cc1OC 4.8%
Cc1cccc(C)c1NC1=NC(=S)N(c2ccccc2)C12CCOC(C)(C)C2 (centres undefined) 0.3%
CCOC(=O)c1c(C)[nH]c(C(=O)OCC(=O)NC2CCS(=O)(=O)C2)c1C (centres undefined) 3.9%
COc1cccc(C2C(C(=O)Nc3nc4ccccc4s3)=C(C)NC3=C2C(=O)CC(C)(C)C3)c1OC (centres undefined) 9%
CNC(=S)N1N=C(c2ccc(OC)cc2)CC1c1ccc(N(C)C)cc1 (centres undefined) 2.4%
Cc1[nH]c2ccccc2c1C(=O)CN1CCCCC1C (centres undefined) -1.1%
O=c1oc2ccccc2cc1-c1nc(-c2ccccc2)no1 1.7%
N#CC(c1ccccc1)c1ccc(C(=O)c2ccc(F)cc2)cc1 (centres undefined) 14.5%
CCSc1nc(N2CCCCC2)c2c(c1C#N)CCCC2 0.8%
O=C(Nc1ccc2[nH]c3c(c2c1)CCCC3)c1ccco1 9%
CCOc1cccc(OCCCCN2CCOCC2)c1 2.4%
COc1ccc(OC)c(-n2c(-c3cc(-c4ccc(F)cc4)n[nH]3)n[nH]c2=S)c1 -1.7%
O=C(CCCOc1ccccc1)N1CCN(c2ccccn2)CC1 -2.5%
COc1ccccc1N1C(=O)C2CC=CC(C)C2C1=O (centres undefined) 2.4%
CN(C)c1nc(SCc2ccccc2Cl)nc2c1CCCC2 -0.7%
CCOC(=O)c1c(NC(=O)Cc2cccs2)sc(C(=O)N2CCCCC2)c1C -4.7%
Cc1cc(N2CCCC2)nc(SCC(=O)c2ccccc2)n1 -1%
Cc1ccc(C)c(N2CCN(c3nnnn3-c3ccccc3)CC2)c1 -2.1%
Cc1cc(NC(=O)CN2C(=O)NC(Cc3ccccc3)C2=O)no1 (centres undefined) 1.6%
COc1ccc(NC(=O)NCc2cccn2C)c(OC)c1 -1.6%
Cn1c(Cl)c(C(=O)Nc2ccc(Cl)cc2)c2ccccc21 0.5%
CCOC(=O)Cn1c(N2CCCCCC2)nc2c1c(=O)[nH]c(=O)n2C -4.4%
S=C(Nc1cccc(Cl)c1)Nc1ccccc1Oc1ccccc1 -0.2%
Cc1ccc(C(O)CN2C3=NCCN3c3ccccc32)cc1 (centres undefined) -1.9%
COc1ccc(C(=O)O/N=C(\N)Cc2ccc(Cl)cc2)cc1OC -2%
Cc1[nH]c2ccccc2c1/C=C/c1cc[n+](C)cc1 3.8%
O=S(=O)(c1ccccc1)c1nc(-c2ccccc2)oc1NCc1cccnc1 3.9%
CCOc1cc(C(=O)Nc2cc(=O)n(C)c(=O)n2C)cc(OCC)c1OCC 6.6%
CCc1nc2c(c(SC)nn2-c2ccccc2)c(N)c1C(=O)OC -0.6%
O=C1C2C(C(=O)N1/N=C/c1cc(Br)cc([N+](=O)[O-])c1O)C1C=CC2C12CC2 (centres undefined) 0%
Cc1cccc(-c2noc(-c3cc4ccccc4oc3=O)n2)c1 -1.4%

Quoted from the results shown, 3 compounds:
inhibition, inactive:
O=c1/c(=C/c2ccc(O)cc2)sc2n1CCCN=2 1.7%
CCOC(=O)COn1c2c(c3c4no[n+]([O-])c4ccc31)CCCC2 0.5%
Cc1cc2c(c(N)n1)c(=O)oc1ccccc12 -1%
